Assay results reported in PubChem BioAssay AID1487 (National Center for Advancing Translational Sciences (NCATS), 2009).
The other results are listed elsewhere or left out. Further columns of the screen follow, without active or inactive calls. Most of these compounds were active or inconclusive in the main read-out, so they are no random draw. The note in brackets gives the kind of curve behind each potency; many fits are weak.

Assay: qHTS Assay for Modulators of Lamin A Splicing
Conditions: HeLa LMNA splicing GFP/RFP minigene ratio, 48 h
How it was run: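 S3 HeLa stable clones carrying a lamin A-EGFP splicing minigene plus DsRed2 were seeded at 600 cells/well in Opti-MEM with 2% FBS, pin-dosed and incubated 48 h at 37°C. Acumen cytometry (488 nm) gave the GFP/RFP total-intensity ratio.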

[1] = measured here: RFP viability control channel
[2] = measured here: GFP splicing reporter channel

SMILES	AC50 [1]	AC50 [2]
C/C(CCC(C)C)=N\NC(=O)COc1ccccc1-c1ccccc1	8.91 µM [rising, partial curve]	–
Cc1ccccc1-c1cc(C(=O)Nc2sc(C(=O)OC(C)C)c(C)c2C#N)c2ccccc2n1	2.82 µM [rising, full curve]	3.16 µM [rising, single point]
Oc1ccc2c(ccc3[nH]cnc32)c1	0.0141 µM [falling, full curve, poor fit]	–
Cc1ccc(Nc2cc(=O)oc3ccccc23)c(C)c1	35.5 µM [falling, single point]	–
CC1=NN(C(=O)c2ccc(Cn3ccc([N+](=O)[O-])n3)cc2)C(O)(C(F)(F)F)C1 (stereo not given)	0.501 µM [falling, full curve, poor fit]	–
COC(=O)c1sc2ccccc2c1S(=O)(=O)N1CCN(c2ccc(C(C)=O)cc2)CC1	–	0.0141 µM [falling, full curve, poor fit]
Cc1cccc(N(C(=O)c2ccc(Cl)cc2)C2CS(=O)(=O)CC2OC(=O)c2ccc(Cl)cc2)c1 (stereo not given)	7.08 µM [rising, partial curve, poor fit]	5.62 µM [rising, full curve, poor fit]
COc1cc(NC(=O)c2cccnc2)ccc1-c1cc2ccccc2oc1=O	0.0112 µM [falling, full curve, poor fit]	–
COc1ccc(Cl)cc1C(=O)Nn1c(-c2cccs2)nc2ccccc2c1=O	7.08 µM [rising, partial curve]	–
O=C(NCC(c1cccs1)N1CCOCC1)c1ccc(Cl)s1 (stereo not given)	–	20 µM [falling, partial curve, poor fit]
CC(=O)c1cc(-c2ccc(F)cc2)n(CCC(=O)NC2CCCCC2)c1C	–	1.26 µM [rising, partial curve, poor fit]
CC(C)(C)c1cc(NCCCn2ccnc2)n2ncc(-c3ccc(Cl)cc3)c2n1	28.2 µM [falling, single point]	28.2 µM [falling, single point]
O=C(CN1CCN(S(=O)(=O)c2ccccc2)CC1)Nc1ccc(Cl)c(Cl)c1	31.6 µM [rising, single point]	22.4 µM [rising, single point]
COc1cc2c(cc1OC)CN(Cc1ccc(C)s1)CC2	–	0.0224 µM [rising, full curve, poor fit]
COc1ccccc1C1C(C(C)=O)=C(C)N=c2s/c(=C\c3cc(OC)c(OC)c(OC)c3)c(=O)n21 (stereo not given)	35.5 µM [rising, single point]	–
Cc1cccc(N=c2oc3cc(O)ccc3cc2C(N)=O)c1	22.4 µM [rising, single point]	12.6 µM [rising, partial curve]
O=S(=O)(Nc1cccc(-c2ccc(N3CCCCC3)nn2)c1)c1ccc(F)cc1F	35.5 µM [falling, single point]	–
Cc1ccc(-c2nc3cc(Cl)ccc3o2)cc1	3.55 µM [falling, full curve, poor fit]	4.47 µM [falling, full curve]

Whole records, looked up by structure. Order of values: AC50 [1]	AC50 [2]
COc1cc2c(cc1OC)CN(Cc1ccc(C)s1)CC2 as listed: –	0.0224 µM [rising, full curve, poor fit]
O=C(NCC(c1cccs1)N1CCOCC1)c1ccc(Cl)s1 (stereo not given) as listed: –	20 µM [falling, partial curve, poor fit]

Remaining list, next part.

SMILES	AC50 [1]	AC50 [2]
C1=Nc2c(NCc3ccccc3)ncnc2Oc2ccccc21	11.2 µM [rising, single point]	–
COc1ccc(C2=C(C(C)=O)Sc3nnc(-c4ccccc4)n3N2C(C)=O)cc1	–	22.4 µM [falling, partial curve, poor fit]
CNC(=O)COC(=O)/C=C/c1ccco1	–	7.08 µM [falling, partial curve, poor fit]
O=C(NCC(c1cccs1)N1CCOCC1)c1ccc([N+](=O)[O-])cc1 (stereo not given)	25.1 µM [rising, single point]	–
CCCc1[nH]nc2c1C(c1cn[nH]c1-c1ccc(F)cc1)C(C#N)=C(N)O2 (stereo not given)	10 µM [rising, partial curve, poor fit]	–
CCCN(CCC)CCNC(=O)CCC(=O)Nc1ccc2nc(N3CCN(C)CC3)cc(C)c2c1	5.62 µM [falling, single point]	–
COc1cc(NC(=O)c2cc3cc4cc(OC)ccc4nc3o2)cc(OC)c1	1.41 µM [falling, partial curve]	2 µM [falling, full curve]
CCCNC(=S)N1CCN(C(c2ccccc2)c2ccccc2)CC1	22.4 µM [rising, single point]	8.91 µM [rising, single point]
CC(C)(C)C(=O)NC(Nc1cccc2cccnc12)C(Cl)(Cl)Cl (stereo not given)	20 µM [falling, partial curve]	–
COC(=O)c1cc(C#N)c(OC(C)C)nc1C	0.447 µM [falling, full curve, poor fit]	–
CC1=Nc2cc(C(=O)NCc3ccco3)ccc2Sc2ccc(C)cc21	5.01 µM [rising, single point]	–
Cc1ccsc1/C=C1/C(=O)NN(c2ccccc2)C1=O	31.6 µM [rising, single point]	11.2 µM [rising, partial curve, poor fit]
COc1cc(/C=C2\CC/C(=C\c3cc(OC)c(OC)c(OC)c3)C2=O)cc(OC)c1OC	0.141 µM [rising, full curve, poor fit]	–
COCCCn1c(=O)/c(=C\c2ccccc2OC(F)F)s/c1=C(/C#N)C(N)=O	–	0.00282 µM [rising, full curve, poor fit]
Cc1cc(C)cc(NC(=S)N=Nc2c(O)n(C)c3ccc(S(=O)(=O)N4CCOCC4)cc23)c1	0.891 µM [rising, full curve]	–
CCOc1ccc(N2C(=O)CC(NCCNc3ccc(C(=O)c4cccs4)cc3)C2=O)cc1 (stereo not given)	0.00316 µM [falling, full curve, poor fit]	–
C/C(=N\Nc1nc2ccccc2[nH]1)c1cccs1	11.2 µM [rising, partial curve, poor fit]	–
CCCn1c2ccccc2c2cnn(CC(=O)NC(C)CC)c(=O)c21 (stereo not given)	–	0.794 µM [falling, full curve, poor fit]
